From patent US20210261642A1, “SOLUBILITY OF GLP-1 PEPTIDE” (Novo Nordisk A/S, priority 2017, published 2021)
The source gives many values for each of these; only a part stands here.

Test: Assay (I): Determination of Solubility (96-well plate, pH 3.0-11.0, organic solvent 0-70% w/w, UV absorption at 280 nm)
Format: physicochemical
Conditions: MeCN 70.0% w/w; for GLP-1 peptide concentration: Method 2 (precipitation), 5° C.
Protocol: Assay (I): Determination of Solubility
96-Well Plate Preparation
96-well plates containing target peptide in a solid form were prepared in one of two ways:
Method 1 (evaporation): Addition of 100 μl stock solution of said peptide at a concentration of 4-6 mg/ml to each well of a 96-well half area plate (150 μl well size). Subsequently the solvent was evaporated by applying a vacuum until the solvent was completely removed.
Method 2 (precipitation): Addition of a certain volume of a stock solution of said peptide containing to each well of a 96-well half area plate followed by the addition of a certain volume of concentrated phosphoric acid to obtain a pH of 4.6 followed by addition of a certain volume of ethanol resulting in a final ethanol concentration of 20% v/v. Subsequently the plate was stored at 4° C. for 1 h and then centrifuged at 4,000 rpm for 20 min. Finally the supernatant was removed. The concentration of the stock solution was chosen in a way that the final amount of peptide after supernatant removal was >0.4 mg per well.
In both cases the stock solution was prepared by adding de-ionized water to a certain amount of powder of said peptide followed by a stepwise addition of small amounts of a concentrated sodium hydroxide solution until said peptide was completely in solution.
To determine solubility of a target peptide at different pH and organic solvent concentrations, two different buffer systems were used in independent experiments to cover the whole range from pH 3.0 to pH 11.0. Buffer system 1 covers pH 3.0-7.5 and buffer system 2 covers pH 7.5-11.0. For each buffer system 96 different solvent compositions were premixed in the following way: • 1. A low pH buffer (adjusted to either pH 3.0 or pH 7.5) and a high pH buffer (adjusted to either pH 7.5 or pH 11.0) were mixed at 8 different ratios to obtain values between pH 3.0 and pH 7.5 or pH 7.5 and pH 11.0, respectively. The total volume after mixing was 300 μl. • 2. 12 different amounts of organic solvent were then added to these buffers to obtain organic solvent (e.g. ethanol) concentrations between 0 and 70% w/w. • 3. Water was then added to obtain a total weight of 1.0 g of solvent in each well.
After preparing the 96 different solvent systems, 100 μl of each system was transferred to the 96-well plate containing the solid form of the target peptide (prepared as described in the section “96-well plate preparation”). The plate was then stored at a given temperature (between 5° C. and 70° C.) for a given time on a rotating shaker set to 400 rpm. At regular time intervals the plate was centrifuged (4,000 rpm for 10 min) and a 10 μl sample was taken from each well. The samples were then analysed by UV absorption at 280 nm for peptide quantification. Peptide concentration results are given as UV absorption at 280 nm of the sample subtracted UV absorption at 280 nm of a well comprising 10 μl water.
The buffers used were as follows: • Buffer system 1 (for the pH range from pH 3.0-7.5)
• Buffer system 2 (for the pH ranae from pH 7.5-11.0)
Solubility of liraglutide was determined using Assay (I) described herein. Liraglutide was prepared using Method 1 (evaporation) or Method 2 (precipitation) as described in subsection “96-well plate preparation”.

[1] = pH 8.5, 70° C., Method 1 (evaporation)
[2] = pH 9.0, 70° C., Method 1 (evaporation)
[3] = pH 9.5, 70° C., Method 1 (evaporation)
[4] = pH 10.0, 70° C., Method 1 (evaporation)
[5] = pH 10.5, 70° C., Method 1 (evaporation)
[6] = pH 11.0, 70° C., Method 1 (evaporation)

CCCCCCCCCCCCCCCC(=O)N[C@@H](CCC(=O)NCCCC[C@H](NC(=O)[C@H](C)NC(=O)[C@H](C)NC(=O)[C@H](CCC(N)=O)NC(=O)CNC(=O)[C@H](CCC(=O)O)NC(=O)[C@H](CC(C)C)NC(=O)[C@H](Cc1ccc(O)cc1)NC(=O)[C@H](CO)NC(=O)[C@H](CO)NC(=O)[C@@H](NC(=O)[C@H](CC(=O)O)NC(=O)[C@H](CO)NC(=O)[C@@H](NC(=O)[C@H](Cc1ccccc1)NC(=O)[C@@H](NC(=O)CNC(=O)[C@H](CCC(=O)O)NC(=O)[C@H](C)NC(=O)[C@@H](N)Cc1cnc[nH]1)[C@@H](C)O)[C@@H](C)O)C(C)C)C(=O)N[C@@H](CCC(=O)O)C(=O)N[C@@H](Cc1ccccc1)C(=O)N[C@H](C(=O)N[C@@H](C)C(=O)N[C@@H](Cc1c[nH]c2ccccc12)C(=O)N[C@@H](CC(C)C)C(=O)N[C@H](C(=O)N[C@@H](CCCNC(=N)N)C(=O)NCC(=O)N[C@@H](CCCNC(=N)N)C(=O)NCC(=O)O)C(C)C)[C@@H](C)CC)C(=O)O [liraglutide, Arg34,Lys26-(N-epsilon-(gamma-L-glutamyl(N-alfa-hexadecanoyl)))-GLP-1(7-37)]
Peptide concentration after 5 min [1]: 0.8 mg/mL | Peptide concentration after 180 min [1]: 3.5 mg/mL | Peptide concentration after 5 min (pH 8.5, RT, Method 1): 0.2 mg/mL | Peptide concentration after 180 min (pH 8.5, RT, Method 1): 0.5 mg/mL | Peptide concentration after 24 h (pH 8.5, RT, Method 1): 1.6 mg/mL | Peptide concentration after 5 min [2]: 0.9 mg/mL | Peptide concentration after 180 min [2]: >4.0 mg/mL | Peptide concentration after 5 min (pH 9.0, RT, Method 1): 0.2 mg/mL | Peptide concentration after 180 min (pH 9.0, RT, Method 1): 1.0 mg/mL | Peptide concentration after 24 h (pH 9.0, RT, Method 1): 2.5 mg/mL | Peptide concentration after 5 min [3]: 1.0 mg/mL | Peptide concentration after 180 min [3]: 3.4 mg/mL | Peptide concentration after 5 min (pH 9.5, RT, Method 1): 0.2 mg/mL | Peptide concentration after 180 min (pH 9.5, RT, Method 1): 0.4 mg/mL | Peptide concentration after 24 h (pH 9.5, RT, Method 1): 1.6 mg/mL | Peptide concentration after 5 min [4]: 0.5 mg/mL | Peptide concentration after 180 min [4]: 2.9 mg/mL | Peptide concentration after 5 min (pH 10.0, RT, Method 1): 0.2 mg/mL | Peptide concentration after 180 min (pH 10.0, RT, Method 1): 0.3 mg/mL | Peptide concentration after 24 h (pH 10.0, RT, Method 1): 1.0 mg/mL | Peptide concentration after 5 min [5]: 0.4 mg/mL | Peptide concentration after 180 min [5]: 3.3 mg/mL | Peptide concentration after 5 min (pH 10.5, RT, Method 1): 0.2 mg/mL | Peptide concentration after 180 min (pH 10.5, RT, Method 1): 0.3 mg/mL | Peptide concentration after 24 h (pH 10.5, RT, Method 1): 1.1 mg/mL | Peptide concentration after 5 min [6]: 0.8 mg/mL | Peptide concentration after 180 min [6]: 3.4 mg/mL | Peptide concentration after 5 min (pH 11.0, RT, Method 1): 0.2 mg/mL | Peptide concentration after 180 min (pH 11.0, RT, Method 1): 0.8 mg/mL | Peptide concentration after 24 h (pH 11.0, RT, Method 1): 2.3 mg/mL | GLP-1 peptide concentration (pH 9.50, 180 min, after removal of outliers): 1.9 mg/mL | GLP-1 peptide concentration (pH 9.50, 24 h, after removal of outliers): >4.0 mg/mL | GLP-1 peptide concentration (pH 10.00, 5 min, after removal of outliers): 0.4 mg/mL | GLP-1 peptide concentration (pH 10.00, 5 min, before removal of outliers): 0.4 mg/mL | GLP-1 peptide concentration (pH 10.00, 180 min, after removal of outliers): 2.4 mg/mL | GLP-1 peptide concentration (pH 10.00, 180 min, before removal of outliers): 2.4 mg/mL | GLP-1 peptide concentration (pH 10.00, 24 h, after removal of outliers): 1.0 mg/mL | GLP-1 peptide concentration (pH 10.00, 24 h, before removal of outliers): 1.0 mg/mL | GLP-1 peptide concentration (pH 10.50, 5 min, after removal of outliers): 0.6 mg/mL | GLP-1 peptide concentration (pH 10.50, 5 min, before removal of outliers): 0.6 mg/mL | GLP-1 peptide concentration (pH 10.50, 180 min, after removal of outliers): 3.1 mg/mL | GLP-1 peptide concentration (pH 10.50, 180 min, before removal of outliers): 3.1 mg/mL | GLP-1 peptide concentration (pH 10.50, 24 h, after removal of outliers): 1.2 mg/mL | GLP-1 peptide concentration (pH 10.50, 24 h, before removal of outliers): 1.2 mg/mL | GLP-1 peptide concentration (pH 11.00, 5 min, after removal of outliers): 0.6 mg/mL | GLP-1 peptide concentration (pH 11.00, 5 min, before removal of outliers): 0.6 mg/mL | GLP-1 peptide concentration (pH 11.00, 180 min, after removal of outliers): 3.5 mg/mL | GLP-1 peptide concentration (pH 11.00, 180 min, before removal of outliers): 3.5 mg/mL | GLP-1 peptide concentration (pH 11.00, 24 h, after removal of outliers): 1.2 mg/mL | GLP-1 peptide concentration (pH 11.00, 24 h, before removal of outliers): 1.2 mg/mL
